Source: patent publication US5037578A, “O,O'-bridged oligophenylene laser dyes and dyestuff lasers and method of lasing therewith” (Exciton Chemical Company, priority 1990, dated 1991)

Key:
[1] = Relative output and lasing wavelength maximum, pumped at 308 nm by xenon-chloride excimer laser; details: 308 nm XeCl excimer pumped
[2] = Flashlamp-pumped lasing and usable lifetime

## CC(C)(C)c1ccc(-c2nnc(-c3ccc(-c4ccccc4)cc3)o2)cc1 [Butyl-PBD, reference compound]
[1]; Table II, ethanol/toluene
  Lasing Wavelength Maximum: 370 nm

## c1ccc2c(c1)Cc1cc(-c3ccc4c(c3)Cc3ccccc3-4)ccc1-2 [2,2'-bifluorene]
[2]; dimethylformamide
  Lasing wavelength, flashlamp pumped: 395 nm
[2]; ethanol
  Lasing wavelength, flashlamp pumped: 358 nm
[1]; Table II, dioxane/methanol
  Lasing Wavelength Maximum: 375 nm

## c1ccc(-c2ccc(-c3ccccc3)cc2)cc1 [p-terphenyl, reference compound]
[1]; Table II, dioxane
  Lasing Wavelength Maximum: 335 nm

## c1ccc2c(c1)oc1cc(-c3ccc4c(c3)oc3ccccc34)ccc12 [3,3'-bi(dibenzofuran)]
[1]; Table III, dioxane
  Lasing Wavelength Maximum: ~375 nm
[1]; dioxane
  Output energy greater than the known laser dye BBQ: ~70%

## CCCC1(CCC)c2ccccc2-c2ccc(-c3ccc4c(c3)C(CCC)(CCC)c3ccccc3-4)cc21 [9,9,9',9'-tetrapropyl-2,2'-bifluorene]
[2]; ethanol/DMF
  Lasing wavelength peak, flashlamp pumped: 382 nm
[2]; flashlamp pumped, ethanol/DMF
  Greater usable lifetime than commercial dye LD-390: 45%
[1]; Table III, dioxane
  Lasing Wavelength Maximum: 383 nm
[1]; Table III, dioxane, listed as 9,9,9'9'-tetrapropyl-2,2'-bifluorene
  Lasing Wavelength Maximum: about 383 nm
[1]; dioxane
  Output energy greater than the known laser dye BBQ: about 27%
